Some of these results come from one statement about several compounds together. For part of these data: For at least one compound, name, drawing or mass did not settle the structure.
What was measured:
Assay in all cases: MIC by dilutions in agar medium (NCCLS)
Type in all cases: cell-based
[1] = system: E. faecalis ATCC29212; conditions: Gram-positive, at 24 hours, agar dilution
Source text: (§1) a) Activity in vitro The method of dilutions in agar medium in agreement with the NCCLS recommendations is used for the determination of the minimum inhibitory concentrations (MIC) expressed in μg/ml.

[2] = system: M. catarrhalis IPA151 sensitive; conditions: Gram-negative, at 48 hours, agar dilution
Source text: as §1

[3] = system: S. aureus AS 5155 methicillin resistant; conditions: Gram-positive, at 24 hours, agar dilution
Source text: as §1

[4] = system: S. aureus IP8203 sensitive; conditions: Gram-positive, at 24 hours, agar dilution
Source text: as §1

[5] = system: S. pneumoniae 6254-01 MLSB resistant; conditions: Gram-positive, at 24 hours, agar dilution
Source text: as §1

[6] = system: H. influenzae 87169 sensitive; conditions: Gram-negative, at 48 hours, agar dilution

COc1ccc2ncc(F)c(CCCC3(C(=O)O)CCN(C/C=C/c4cc(F)ccc4F)C3)c2c1 (single isomer, unassigned) [Example 4, 1-[(2E)-3-(2,5-difluorophenyl)-2-propenyl]-3-[3-(3-fluoro-6-methoxyquinolin-4-yl)propyl]-3-pyrrolidinecarboxylic acid]
MIC [1]: 0.25 to 32 µg/mL
MIC [2]: <0.12 to 2 µg/mL
MIC [3]: <0.015 to 4 µg/mL
MIC [4]: <0.015 to 4 µg/mL
MIC [5]: <0.015 to 4 µg/mL
MIC [6]: 1–>64

— patent US7232833B2, “4-substituted quinoline derivatives, method and intermediates for their preparation and pharmaceutical compositions containing them” (Novexel, priority 2003, dated 2007)
